Results are given in words; binding and its absence hold for the method and conditions named. In cells and extracts the contact can be indirect. Some binding calls cover weakened binding; strength is not graded here. Where a sequence is shown, tags or fusion partners need not be part of it.
What was measured:
[1] = target: T1, Glycoprotein 90K, myc-tagged (90K-myc) (UniProt Q08380); assay: co-IP; HEK293T cells treated with 90K conditioned medium (90K/CM, only mature 90K); lysates immunoprecipitated with anti-myc antibody, 16 h at 4 °C, protein G-Sepharose
T1 sequence: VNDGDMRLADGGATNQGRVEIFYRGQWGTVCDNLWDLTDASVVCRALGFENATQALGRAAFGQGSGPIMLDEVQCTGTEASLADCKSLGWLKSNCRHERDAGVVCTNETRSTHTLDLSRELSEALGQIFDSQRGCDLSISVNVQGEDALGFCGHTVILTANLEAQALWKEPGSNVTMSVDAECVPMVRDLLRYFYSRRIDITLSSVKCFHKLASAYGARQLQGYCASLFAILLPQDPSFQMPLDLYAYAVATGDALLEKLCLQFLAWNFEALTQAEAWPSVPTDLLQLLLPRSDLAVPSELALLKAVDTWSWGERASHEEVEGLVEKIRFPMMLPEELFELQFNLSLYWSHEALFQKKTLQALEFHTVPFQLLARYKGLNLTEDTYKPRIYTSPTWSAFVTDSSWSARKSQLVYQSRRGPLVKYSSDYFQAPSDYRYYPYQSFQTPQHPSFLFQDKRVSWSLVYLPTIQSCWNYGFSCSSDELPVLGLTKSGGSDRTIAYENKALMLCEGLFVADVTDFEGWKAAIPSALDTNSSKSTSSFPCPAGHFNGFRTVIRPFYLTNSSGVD

Sequences of proteins named here, by UniProt entry; tags and fusion partners are left off.
UniProt P35222: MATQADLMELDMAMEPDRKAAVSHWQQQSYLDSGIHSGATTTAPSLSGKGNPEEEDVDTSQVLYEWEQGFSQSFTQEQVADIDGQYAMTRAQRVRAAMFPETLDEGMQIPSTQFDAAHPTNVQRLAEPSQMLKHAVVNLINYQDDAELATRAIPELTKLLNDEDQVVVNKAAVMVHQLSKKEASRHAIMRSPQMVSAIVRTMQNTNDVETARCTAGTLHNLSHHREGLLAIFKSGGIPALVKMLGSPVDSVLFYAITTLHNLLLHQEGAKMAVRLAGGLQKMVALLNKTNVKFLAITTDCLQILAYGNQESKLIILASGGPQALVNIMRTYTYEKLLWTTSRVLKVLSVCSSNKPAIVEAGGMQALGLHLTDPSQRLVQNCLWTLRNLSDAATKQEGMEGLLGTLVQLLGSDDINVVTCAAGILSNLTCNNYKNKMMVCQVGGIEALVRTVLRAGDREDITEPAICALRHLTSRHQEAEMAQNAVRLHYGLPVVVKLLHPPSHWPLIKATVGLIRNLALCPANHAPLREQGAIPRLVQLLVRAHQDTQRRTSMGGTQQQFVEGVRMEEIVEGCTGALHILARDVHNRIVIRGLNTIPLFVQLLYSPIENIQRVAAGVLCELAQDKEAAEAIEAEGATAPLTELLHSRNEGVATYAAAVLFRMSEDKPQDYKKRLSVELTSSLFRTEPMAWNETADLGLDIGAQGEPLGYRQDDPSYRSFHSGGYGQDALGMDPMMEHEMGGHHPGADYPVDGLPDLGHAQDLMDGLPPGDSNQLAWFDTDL

[2] = target: T1, Glycoprotein 90K, myc-tagged (90K-myc); assay: co-IP; HEK293T cells transfected with 90K-myc plasmid (also together with p120-catenin shRNA, human-specific or canine-specific control); lysates immunoprecipitated with anti-myc antibody, 16 h at 4 °C, protein G-Sepharose; blots for E-cadherin, p120-catenin, β-catenin

With β-catenin (from UniProt P35222 1-781) the binding [1] was “no binding” and the binding [2] was “no binding”.

B1: p120-catenin (protein, UniProt O60716 1-968)
chain: MDDSEVESTASILASVKEQEAQFEKLTRALEEERRHVSAQLERVRVSPQDANPLMANGTLTRRHQNGRFVGDADLERQKFSDLKLNGPQDHSHLLYSTIPRMQEPGQIVETYTEEDPEGAMSVVSVETSDDGTTRRTETTVKKVVKTVTTRTVQPVAMGPDGLPVDASSVSNNYIQTLGRDFRKNGNGGPGPYVGQAGTATLPRNFHYPPDGYSRHYEDGYPGGSDNYGSLSRVTRIEERYRPSMEGYRAPSRQDVYGPQPQVRVGGSSVDLHRFHPEPYGLEDDQRSMGYDDLDYGMMSDYGTARRTGTPSDPRRRLRSYEDMIGEEVPSDQYYWAPLAQHERGSLASLDSLRKGGPPPPNWRQPELPEVIAMLGFRLDAVKSNAAAYLQHLCYRNDKVKTDVRKLKGIPVLVGLLDHPKKEVHLGACGALKNISFGRDQDNKIAIKNCDGVPALVRLLRKARDMDLTEVITGTLWNLSSHDSIKMEIVDHALHALTDEVIIPHSGWEREPNEDCKPRHIEWESVLTNTAGCLRNVSSERSEARRKLRECDGLVDALIFIVQAEIGQKDSDSKLVENCVCLLRNLSYQVHREIPQAERYQEAAPNVANNTGPHAASCFGAKKGKDEWFSRGKKPIEDPANDTVDFPKRTSPARGYELLFQPEVVRIYISLLKESKTPAILEASAGAIQNLCAGRWTYGRYIRSALRQEKALSAIADLLTNEHERVVKAASGALRNLAVDARNKELIGKHAIPNLVKNLPGGQQNSSWNFSEDTVISILNTINEVIAENLEAAKKLRETQGIEKLVLINKSGNRSEKEVRAAALVLQTIWGYKELRKPLEKEGWKKSDFQVNLNNASRSQSSHSYDDSTLPLIDRNQKSDKKPDREEIQMSNMGSNTKSLDNNYSTPNERGDHNRTLDRSGDLGDMEPLKGTTPLMQDEGQESLEEELDVLVLDDEGGQVSYPSMQKI
B1 was tested, and the binding [1] was “binds” and the binding [2] was “binds”.
